Data reported in PMC12752551.
These are yes or no findings as the source states them, for the method shown. Some binding calls cover weakened binding; strength is not graded here. Sequences can lack the tags named with a protein.

What was measured:
GST-TRIM24, recombinant = target: T1, GST-TRIM24, recombinant (UniProt O15164); test: ELISA; competition ELISA: plates coated with recombinant GST-TRIM24 (0.5 µg/mL), incubated with recombinant His-TREX1 (3 µg/mL) and different concentrations of RFWD3 protein; HRP-conjugated anti-His tag antibody; both purified
T1 sequence: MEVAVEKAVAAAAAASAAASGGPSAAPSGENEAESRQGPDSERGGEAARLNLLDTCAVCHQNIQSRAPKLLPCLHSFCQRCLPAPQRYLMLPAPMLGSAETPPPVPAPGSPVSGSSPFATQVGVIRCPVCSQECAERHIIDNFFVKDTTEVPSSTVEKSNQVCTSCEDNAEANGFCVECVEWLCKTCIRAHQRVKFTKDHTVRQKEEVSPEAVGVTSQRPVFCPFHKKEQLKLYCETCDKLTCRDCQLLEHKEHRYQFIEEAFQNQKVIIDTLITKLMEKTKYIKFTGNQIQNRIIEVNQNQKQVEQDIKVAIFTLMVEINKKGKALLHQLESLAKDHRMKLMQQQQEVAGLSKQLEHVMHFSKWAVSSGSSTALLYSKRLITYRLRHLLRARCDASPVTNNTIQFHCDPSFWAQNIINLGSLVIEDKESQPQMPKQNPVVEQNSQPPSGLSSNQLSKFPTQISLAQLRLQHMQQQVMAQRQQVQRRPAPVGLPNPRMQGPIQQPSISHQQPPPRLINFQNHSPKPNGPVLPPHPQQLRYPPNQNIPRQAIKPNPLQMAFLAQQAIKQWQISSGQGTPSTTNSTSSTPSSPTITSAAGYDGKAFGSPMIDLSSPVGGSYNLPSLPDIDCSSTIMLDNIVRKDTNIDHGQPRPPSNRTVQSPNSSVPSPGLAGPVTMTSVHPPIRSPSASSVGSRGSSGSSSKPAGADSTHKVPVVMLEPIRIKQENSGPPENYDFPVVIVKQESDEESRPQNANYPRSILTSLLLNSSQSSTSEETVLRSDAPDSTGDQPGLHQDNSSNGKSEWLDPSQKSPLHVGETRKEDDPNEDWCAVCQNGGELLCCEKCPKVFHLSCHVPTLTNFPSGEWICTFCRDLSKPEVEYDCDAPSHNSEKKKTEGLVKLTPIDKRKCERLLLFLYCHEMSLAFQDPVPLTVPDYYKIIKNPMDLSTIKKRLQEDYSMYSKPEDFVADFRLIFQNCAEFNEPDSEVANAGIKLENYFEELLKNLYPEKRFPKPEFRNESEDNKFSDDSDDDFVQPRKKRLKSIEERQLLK

GST-RFWD3, recombinant = target: T2, GST-RFWD3, recombinant (UniProt Q6PCD5); test: pull-down; GST or GST-RFWD3 (15 µg) on Glutathione Sepharose 4B 5 h at 4 °C, then His-TREX1 at 4 °C overnight; washed four times; western blot; both purified
T2 sequence: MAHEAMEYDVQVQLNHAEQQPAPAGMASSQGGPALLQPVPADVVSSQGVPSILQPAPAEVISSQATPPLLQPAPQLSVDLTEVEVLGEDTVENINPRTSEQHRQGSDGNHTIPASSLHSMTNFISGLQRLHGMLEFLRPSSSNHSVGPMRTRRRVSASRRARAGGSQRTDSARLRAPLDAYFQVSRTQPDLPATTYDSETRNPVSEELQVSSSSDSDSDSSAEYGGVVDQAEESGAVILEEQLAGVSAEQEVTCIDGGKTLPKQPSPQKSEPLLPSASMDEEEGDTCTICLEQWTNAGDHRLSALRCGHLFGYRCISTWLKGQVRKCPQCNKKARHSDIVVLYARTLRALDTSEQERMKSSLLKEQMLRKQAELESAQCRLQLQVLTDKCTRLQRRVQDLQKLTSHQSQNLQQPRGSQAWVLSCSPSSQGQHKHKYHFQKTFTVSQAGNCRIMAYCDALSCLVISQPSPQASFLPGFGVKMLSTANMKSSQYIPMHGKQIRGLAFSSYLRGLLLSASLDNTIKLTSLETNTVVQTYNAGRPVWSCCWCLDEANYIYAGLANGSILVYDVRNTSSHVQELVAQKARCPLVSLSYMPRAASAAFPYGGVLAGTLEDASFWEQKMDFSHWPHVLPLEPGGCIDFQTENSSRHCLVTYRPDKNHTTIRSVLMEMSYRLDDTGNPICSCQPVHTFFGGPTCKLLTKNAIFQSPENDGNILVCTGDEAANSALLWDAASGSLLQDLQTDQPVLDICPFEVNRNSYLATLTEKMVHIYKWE

B1: His-TREX1 (1-314 aa), recombinant (protein, UniProt Q9NSU2-3 1-314)
chain: MGSQALPPGPMQTLIFFDMEATGLPFSQPKVTELCLLAVHRCALESPPTSQGPPPTVPPPPRVVDKLSLCVAPGKACSPAASEITGLSTAVLAAHGRQCFDDNLANLLLAFLRRQPQPWCLVAHNGDRYDFPLLQAELAMLGLTSALDGAFCVDSITALKALERASSPSEHGPRKSYSLGSIYTRLYGQSPPDSHTAEGDVLALLSICQWRPQALLRWVDAHARPFGTIRPMYGVTASARTKPRPSAVTTTAHLATTRNTSPSLGESRGTKDLPPVKDPGALSREGLLAPLGLLAILTLAVATLYGLSLATPGE
What does the source list for B1?
binding (GST-TRIM24, recombinant): binds; binding (GST-RFWD3, recombinant): binds
